Part of at least one peptide drawing is inferred or uncertain, most often the ends. Non-standard residues stand in square brackets, D forms with d. Residues, ends and D or L forms follow the SMILES beside them.
How the values were obtained:
[1] = system: p53 deficient Hep3B cells; test: TUNEL apoptosis assay, Hep3B; type: cell-based, human; details: 25 μM, 24 hours
[2] = system: human hepatoma HepG2 cells; test: TUNEL apoptosis assay, HepG2; type: cell-based; details: HepG2, 25 μM, 24 hours
[3] = system: HCC cells of ARF -/- Rosa 26 FoxM1b TG mice; test: Apoptosis of HCC in ARF -/- Rosa26 FoxM1b TG mice (H&E, TUNEL); type: in vivo, mouse; details: 4 weeks
Protocol: In order to determine the effective concentration of dose of the ARF peptide for efficient liver delivery, mice were subjected to IP injection of either 0.1, 1, 5 or 10 mg/Kg body weight of TMR fluorescently tagged WT ARF 26-44 peptide, and were sacrificed 24 hours later, after which their livers were dissected, formalin fixed and paraffin embedded. Liver sections were treated with Xylene to remove paraffin wax and then examined by fluorescent microscopy for red peptide fluorescence. This dose response curve determined that IP injection of either equal or greater than 5 mg/Kg body weight of TMR-fluorescently labeled WT ARF 26-44 peptide was detectable in cytoplasm and nucleolus of hepatocytes and in hepatic mesenchymal cells at 24 hours after injection (FIG. 4G). Based on these studies, hepatic tumors were induced in Foxm1 f1/f1 mice by 32 weeks of DEN/PB exposure and then they were subjected to daily IP injections of 5 mg/Kg body weight of the cell penetrating WT ARF 26-44 peptide or Mutant ARF 37-44 peptide for 4 weeks and with WT ARF 26-44 peptide for 8 weeks (FIG. 4A). After 33 weeks of DEN/PB treatment, ARF −/− Rosa26-FoxM1b TG mice were subjected to daily IP injections of 5 mg/Kg body weight of the cell penetrating WT ARF 26-44 peptide or Mutant ARF 37-44 peptide for 4 weeks. Liver tumor bearing mice were also administered sterile PBS as controls.
To measure apoptosis in mouse livers we used the Terminal Deoxynucleotidyl Transferase-mediated dUTP-biotin Nick End Labeling (TUNEL) assay on liver sections using the ApoTag Fluorescein in situ apoptosis detection kit from Intergen (Purchase, N.Y.) according to the manufacturer's recommendations. The mean number (±SD) of TUNEL- or DAPI-positive hepatocyte nuclei was calculated per 1000 cells or 200× field by counting the number of positive hepatocyte nuclei using five different 200× fields of liver tumor sections from male mice at the indicated times of DEN/PB exposure. […]

[4] = system: endothelial cells of HCC regions; test: CD34 immunostaining of HCC tumor sections (HCC angiogenesis); type: in vivo, mouse; details: daily IP 5 mg/Kg, DEN/PB HCC
p53 protein = test: Western blot HepG2, p53; type: cell-based, human; details: HepG2, 24 hours of treatment
hepatic adenomas and HCC = test: Number and size of DEN/PB-induced liver tumors (H&E stained liver sections), Foxm1 fl/fl mice; type: in vivo, mouse; details: 40 wks DEN/PB; daily IP 5 mg/Kg; mean ± SD
p27^Kip1 protein = test: p27Kip1 immunohistochemistry of HCC; type: in vivo, mouse; details: daily IP 5 mg/Kg
mouse HCC cells = test: Apoptosis in mouse liver tumors (H&E, TUNEL, activated caspase 3); type: in vivo
Description: Furthermore, these apoptotic tumor cells were not apparent in FoxM1 deficient livers in dsRNA (CKO) Mx-Cre Foxm1−/− mice (FIG. 3E-3G).
To measure apoptosis in mouse livers we used the Terminal Deoxynucleotidyl Transferase-mediated dUTP-biotin Nick End Labeling (TUNEL) assay on liver sections using the ApoTag Fluorescein in situ apoptosis detection kit from Intergen (Purchase, N.Y.) according to the manufacturer's recommendations. The mean number (±SD) of TUNEL- or DAPI-positive hepatocyte nuclei was calculated per 1000 cells or 200× field by counting the number of positive hepatocyte nuclei using five different 200× fields of liver tumor sections from male mice at the indicated times of DEN/PB exposure.

[5] = system: PLC/PRF/5 cells that express mutant p53 protein; test: TUNEL apoptosis assay, PLC/PRF/5; type: cell-based, human; details: PLC/PRF/5, 25 μM, 24 hours
[6] = system: human microvascular endothelial cells (HMEC-1 cells); test: TUNEL apoptosis assay in HMEC-1 cells; type: cell-based; details: 100 μM, 48 hours
Foxm1 protein = biological target: T1, Foxm1 protein (Mus musculus, UniProt O08696); test: Foxm1 immunostaining of liver tumor sections (nucleolar targeting); type: in vivo; details: daily IP 5 mg/Kg, 4 weeks
T1 construct: partially targeting the endogenous Foxm1 protein to the nucleolus of hepatic tumor cells; from tissue; host or cells: liver tumour sections of DEN/PB-treated Foxm1 fl/fl mice
T1 sequence (O08696 1-760): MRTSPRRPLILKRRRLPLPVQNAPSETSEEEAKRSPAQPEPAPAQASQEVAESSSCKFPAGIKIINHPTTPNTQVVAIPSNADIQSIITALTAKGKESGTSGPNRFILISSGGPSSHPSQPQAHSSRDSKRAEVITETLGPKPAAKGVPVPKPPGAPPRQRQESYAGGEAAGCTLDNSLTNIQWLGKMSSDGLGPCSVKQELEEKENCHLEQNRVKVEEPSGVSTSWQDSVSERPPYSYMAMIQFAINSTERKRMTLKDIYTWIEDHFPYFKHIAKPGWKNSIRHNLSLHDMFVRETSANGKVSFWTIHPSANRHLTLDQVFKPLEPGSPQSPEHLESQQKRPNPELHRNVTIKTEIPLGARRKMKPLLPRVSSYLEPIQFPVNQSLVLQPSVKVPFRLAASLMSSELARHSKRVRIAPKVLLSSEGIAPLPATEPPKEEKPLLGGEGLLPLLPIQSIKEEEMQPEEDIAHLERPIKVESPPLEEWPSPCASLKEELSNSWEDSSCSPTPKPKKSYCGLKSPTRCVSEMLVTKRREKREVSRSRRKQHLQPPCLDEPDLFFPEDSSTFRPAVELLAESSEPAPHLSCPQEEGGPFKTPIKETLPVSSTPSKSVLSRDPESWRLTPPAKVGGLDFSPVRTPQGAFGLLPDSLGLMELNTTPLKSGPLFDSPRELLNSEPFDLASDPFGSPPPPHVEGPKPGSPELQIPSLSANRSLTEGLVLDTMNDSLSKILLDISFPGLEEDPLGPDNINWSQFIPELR

`CC(C)C[C@H](NC(=O)[C@H](C)NC(=O)[C@H](CS)NC(=O)[C@H](CO)NC(=O)[C@@H](CCCNC(=N)N)NC(=O)[C@@H](CCCNC(=N)N)NC(=O)[C@@H](CCCNC(=N)N)NC(=O)[C@@H](CCCNC(=N)N)NC(=O)[C@@H](CCCNC(=N)N)NC(=O)[C@@H](CCCNC(=N)N)NC(=O)[C@@H](CCCNC(=N)N)NC(=O)[C@@H](CCCNC(=N)N)NC(=O)[C@H](N)CCCNC(=N)N)C(=O)N[C@@H](C)C(=O)N[C@@H](Cc1ccccc1)C(=O)N[C@H](C(=O)N[C@@H](CC(N)=O)C(=O)O)C(C)C` [mutant ARF 37-44 peptide, rrrrrrrrrSCALAFVN, reference compound] (H-[dR][dR][dR][dR][dR][dR][dR][dR][dR]SCALAFVN-OH; N-terminus and C-terminus assumed) was tested, and the “apoptosis (TUNEL)” value [1] was “only low levels of apoptosis”, the “apoptosis (TUNEL)” value [2] was “only low levels of apoptosis” and the “increase in apoptosis of HCC cells (TUNEL)” value [3] was “very few apoptotic HCC cells”. For the same molecule, the “red staining HCC cells indicative of apoptosis (H&E)” value [3] was “but not”, the “CD34 protein staining in endothelial cells of HCC” value [4] was “Abundant CD34 staining” and the p53 protein levels (p53 protein) was “unaltered”. The “No. of liver tumors between 0.1 and 2.0 mm^2, No. Ad.” value (hepatic adenomas and HCC) was 4.9 ± 1.5 per cm^2 liver tissue, the “No. of liver tumors between 0.1 and 2.0 mm^2, No. HCC” value (hepatic adenomas and HCC) was 11.7 ± 2.7 per cm^2 liver tissue and the “No. of liver tumors greater than 2.0 mm^2, No. Ad.” value (hepatic adenomas and HCC) was 4.5 ± 0.9 per cm^2 liver tissue. For the same molecule, the “No. of liver tumors greater than 2.0 mm^2, No. HCC” value (hepatic adenomas and HCC) was 4.9 ± 1.4 per cm^2 liver tissue, the “p27^Kip1 protein localization in HCC cells” value (p27^Kip1 protein) was “predominantly cytoplasmic” and the “increase in apoptosis of mouse HCC cells (TUNEL)” value (mouse HCC cells; Foxm1 fl/fl mice, DEN/PB HCC) was “very few apoptotic HCC cells”. The “red staining (apoptotic) tumor cells in H&E stained liver tumor sections” value (mouse HCC cells; daily IP 5 mg/Kg, 4 or 8 weeks) was “No red staining tumor cells were found”, the “apoptosis (TUNEL)” value [5] was “only low levels of apoptosis” and the “apoptosis of HMEC-1 cells (TUNEL)” value [6] was “did not”. The “Foxm1 protein staining localization in hepatic tumor cells” value (Foxm1 protein) was “only nuclear Foxm1 staining”.
